Assay results taken from PubChem BioAssay AID588590 (National Center for Advancing Translational Sciences (NCATS), 2011).
Several values for one entry are separate records, joined by “and”; a condition that tells them apart may be missing. Equal entries are not always repeated. The whole screen tested about 390,000 compounds, of which about 4,000 (1%) were called active. Inconclusive results, whose numbers are uncertain, are shown with a selection of clear calls. The call rests on the fitted dose curve; in most records, active means well fitted inhibition curve with a large enough effect; inconclusive means small, poorly fitted or top-dose-only effect, or another doubt; inactive means no such curve, though single readings can be large or run the other way. Potencies of inconclusive entries are doubtful fits and often do not repeat.

Protein sequences, listed by entry. Tags and fused reporters are not part of them. Lines headed by an entry give the natural chain unless they say otherwise; changes in a name come on top.
UniProt Q9UNA4: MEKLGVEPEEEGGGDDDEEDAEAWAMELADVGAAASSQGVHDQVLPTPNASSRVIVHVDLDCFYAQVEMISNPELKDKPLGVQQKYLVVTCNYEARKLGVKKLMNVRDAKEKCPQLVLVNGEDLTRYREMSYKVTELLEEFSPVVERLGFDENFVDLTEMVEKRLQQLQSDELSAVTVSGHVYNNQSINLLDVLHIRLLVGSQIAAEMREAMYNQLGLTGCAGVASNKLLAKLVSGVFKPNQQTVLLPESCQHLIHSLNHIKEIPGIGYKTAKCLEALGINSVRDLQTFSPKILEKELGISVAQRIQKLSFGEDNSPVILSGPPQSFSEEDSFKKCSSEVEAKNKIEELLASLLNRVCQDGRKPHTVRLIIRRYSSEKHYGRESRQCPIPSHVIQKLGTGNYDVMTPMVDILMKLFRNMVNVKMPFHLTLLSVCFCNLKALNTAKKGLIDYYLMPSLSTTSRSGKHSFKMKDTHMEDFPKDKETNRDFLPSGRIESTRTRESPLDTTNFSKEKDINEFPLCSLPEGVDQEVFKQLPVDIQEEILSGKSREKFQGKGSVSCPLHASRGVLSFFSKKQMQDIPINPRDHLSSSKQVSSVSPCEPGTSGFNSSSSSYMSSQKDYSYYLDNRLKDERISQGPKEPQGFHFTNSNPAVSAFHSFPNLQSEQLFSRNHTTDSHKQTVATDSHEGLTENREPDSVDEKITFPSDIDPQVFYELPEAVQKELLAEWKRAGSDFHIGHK

Molecular target: DNA polymerase iota (Homo sapiens) (UniProt Q9UNA4)
Assay: qHTS for Inhibitors of Polymerase Iota
Conditions: Pol iota fluorescent replication assay, 10 min; series mostly up to 115 µM; activity, negative = inhibition: at the top concentration
Summary of the method: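 Pol iota at 10 nM preincubated 15 min with compounds at room temperature; reaction started with fluorescent substrate, 50 nM final. Fluorescence read kinetically at 0 and 10 min; buffer-only wells as negative control.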
Potency means the concentration at half of the fitted maximal effect.

| SMILES | Potency | activity, negative = inhibition |
| --- | --- | --- |
| COc1cc(C(CC(=O)N2CCCC2)c2c(OC)cc(OC)c3c(-c4ccccc4)cc(=O)oc23)cc(OC)c1OC (stereo not drawn) | inactive and inconclusive: 631 nM [inhibitor, full curve, poor fit] | – |
| Cc1ccccc1CSc1cn(CCNC(=O)c2cccs2)c2ccccc12 | inconclusive: 2.51 µM [inhibitor, partial curve, poor fit] | – |
| CCOC(=O)c1sc(NCCNc2nc(C)c(C(=O)OCC)s2)nc1C | inconclusive: 44.7 µM [inhibitor, partial curve, poor fit] | – |
| CCOc1ccc(CNS(=O)(=O)c2ccc3[nH]c4c(c3c2)CCCC4)cc1OC | – | inactive: 56.4% |
| CCn1c(SCC(=O)Nc2ccccc2OC)nc2ccccc2c1=O | – | inactive: 23.2% |
| Cc1cccc2nc(COc3ccc(Cl)c4cccnc34)cn12 | inconclusive: 56.2 µM [inhibitor, partial curve, poor fit] | – |
| Cc1ccc(Cl)cc1N1CCN(C(=O)c2cc(S(=O)(=O)N3CCC(C)CC3)cn2C)CC1 | – | inactive: 5.97% |
| CN(C)CCNC(=O)C(=O)Nc1cc2c3c(c1)CCN3C(=O)CC2 | active: 39.8 µM | – |
| COc1cccc2sc(N(CCCN(C)C)C(=O)CCS(=O)(=O)c3ccccc3)nc12 | inconclusive: 14.1 µM [inhibitor, partial curve, poor fit] | – |
| CCOc1ccc(-c2cc(C(=O)NCCCn3ccnc3)c3cc(Br)ccc3n2)cc1 | inconclusive: 14.1 µM [inhibitor, partial curve, poor fit] | – |
| Cn1nc(N)c2c(-c3ccc(Cl)cc3)c(C#N)c(N)nc21 | inconclusive: 28.2 µM [inhibitor, full curve, poor fit] | – |
| COc1cccc(CNC(=O)CCc2nnc3n(C)c(=O)c4sccc4n23)c1 | – | inactive: 3.43% |
| O=C(/C=C/c1cccc(Cl)c1)c1ccc([N+](=O)[O-])o1 | inconclusive: 3.98 µM [inhibitor, partial curve, poor fit] | – |
| O=C(NC(=S)N1CCN(c2ccc([N+](=O)[O-])cc2)CC1)c1ccco1 | inconclusive: 89.1 µM [inhibitor, partial curve, poor fit] | – |
| O=C(Cc1n[nH]c(=O)c2ccccc12)OCC(=O)c1ccccc1Cl | – | inactive: 1.16% |
| COC(=O)c1sccc1NC(=O)Nc1cccc(Cl)c1Cl | inconclusive: 39.8 µM [inhibitor, single point] | – |
| O=C(Nc1nc(-c2cccs2)cs1)c1cccc(S(=O)(=O)N2CCCCC2)c1 | inconclusive: 39.8 µM [inhibitor, partial curve, poor fit] | – |
| C#CCOCCOCCOCCNc1nc(N2CCN(C(=O)CCCCCCCCCCNC(=O)[C@H](CCCCN)n3cc(C[C@@H](C)CC)nn3)CC2)nc(N2CCN(C(=O)CCCCCCCCCCNC(=O)[C@H](CCCCN)n3cc(C[C@@H](C)CC)nn3)CC2)n1 | – | inactive: 20.3% |

Taken from the results shown (2 entries):

| SMILES | Potency | activity, negative = inhibition |
| --- | --- | --- |
| Cc1ccccc1CSc1cn(CCNC(=O)c2cccs2)c2ccccc12 | inconclusive: 2.51 µM [inhibitor, partial curve, poor fit] | – |
| CCOC(=O)c1sc(NCCNc2nc(C)c(C(=O)OCC)s2)nc1C | inconclusive: 44.7 µM [inhibitor, partial curve, poor fit] | – |
